From paper PMC10387110 come the findings set out here.

By UniProt entry, the sequences of proteins in these tests, tags left out.
UniProt Q61025: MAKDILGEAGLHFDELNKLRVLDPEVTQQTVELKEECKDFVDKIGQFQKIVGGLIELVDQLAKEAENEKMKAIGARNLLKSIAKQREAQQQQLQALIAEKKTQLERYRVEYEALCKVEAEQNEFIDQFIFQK
UniProt E9PY46: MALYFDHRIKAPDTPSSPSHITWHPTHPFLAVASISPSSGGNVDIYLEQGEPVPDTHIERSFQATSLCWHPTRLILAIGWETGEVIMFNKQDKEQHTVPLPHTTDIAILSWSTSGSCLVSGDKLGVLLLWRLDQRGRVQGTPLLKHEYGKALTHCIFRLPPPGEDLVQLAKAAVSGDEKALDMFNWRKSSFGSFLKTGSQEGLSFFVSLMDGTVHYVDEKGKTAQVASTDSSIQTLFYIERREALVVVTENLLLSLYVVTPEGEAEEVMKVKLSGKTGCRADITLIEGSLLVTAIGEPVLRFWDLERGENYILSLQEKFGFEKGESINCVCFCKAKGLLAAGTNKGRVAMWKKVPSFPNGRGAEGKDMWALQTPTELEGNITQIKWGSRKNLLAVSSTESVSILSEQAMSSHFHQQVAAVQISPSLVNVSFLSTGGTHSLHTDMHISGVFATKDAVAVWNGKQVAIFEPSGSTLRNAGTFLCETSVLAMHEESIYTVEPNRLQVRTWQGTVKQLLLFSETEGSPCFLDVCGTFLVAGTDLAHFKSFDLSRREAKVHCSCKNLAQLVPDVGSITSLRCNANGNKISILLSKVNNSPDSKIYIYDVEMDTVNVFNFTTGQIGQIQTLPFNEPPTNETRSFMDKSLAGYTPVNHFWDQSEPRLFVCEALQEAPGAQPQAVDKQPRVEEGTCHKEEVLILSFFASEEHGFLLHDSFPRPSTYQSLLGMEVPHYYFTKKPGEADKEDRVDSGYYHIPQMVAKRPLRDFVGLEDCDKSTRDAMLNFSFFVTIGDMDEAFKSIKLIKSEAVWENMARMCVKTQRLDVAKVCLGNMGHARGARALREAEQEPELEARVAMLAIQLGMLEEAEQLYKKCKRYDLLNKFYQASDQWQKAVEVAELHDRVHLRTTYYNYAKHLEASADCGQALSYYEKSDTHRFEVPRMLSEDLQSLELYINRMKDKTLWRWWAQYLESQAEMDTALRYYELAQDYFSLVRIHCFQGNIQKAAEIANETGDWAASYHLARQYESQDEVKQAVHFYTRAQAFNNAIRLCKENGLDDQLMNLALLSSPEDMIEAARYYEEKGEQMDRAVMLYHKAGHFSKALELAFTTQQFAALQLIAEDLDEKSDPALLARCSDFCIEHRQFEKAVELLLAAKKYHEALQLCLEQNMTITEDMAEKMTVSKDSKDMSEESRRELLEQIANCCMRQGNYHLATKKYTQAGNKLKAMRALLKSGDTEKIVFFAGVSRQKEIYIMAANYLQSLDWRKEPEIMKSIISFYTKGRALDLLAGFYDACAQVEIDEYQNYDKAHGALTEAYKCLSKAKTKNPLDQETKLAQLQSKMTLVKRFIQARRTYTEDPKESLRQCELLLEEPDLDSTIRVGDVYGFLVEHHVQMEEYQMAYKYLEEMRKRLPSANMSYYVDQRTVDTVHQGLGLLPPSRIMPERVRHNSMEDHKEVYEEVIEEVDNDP

To fix the notation:
T1: Myc-tagged WDR11 (UniProt Q9BZH6)
T1 sequence: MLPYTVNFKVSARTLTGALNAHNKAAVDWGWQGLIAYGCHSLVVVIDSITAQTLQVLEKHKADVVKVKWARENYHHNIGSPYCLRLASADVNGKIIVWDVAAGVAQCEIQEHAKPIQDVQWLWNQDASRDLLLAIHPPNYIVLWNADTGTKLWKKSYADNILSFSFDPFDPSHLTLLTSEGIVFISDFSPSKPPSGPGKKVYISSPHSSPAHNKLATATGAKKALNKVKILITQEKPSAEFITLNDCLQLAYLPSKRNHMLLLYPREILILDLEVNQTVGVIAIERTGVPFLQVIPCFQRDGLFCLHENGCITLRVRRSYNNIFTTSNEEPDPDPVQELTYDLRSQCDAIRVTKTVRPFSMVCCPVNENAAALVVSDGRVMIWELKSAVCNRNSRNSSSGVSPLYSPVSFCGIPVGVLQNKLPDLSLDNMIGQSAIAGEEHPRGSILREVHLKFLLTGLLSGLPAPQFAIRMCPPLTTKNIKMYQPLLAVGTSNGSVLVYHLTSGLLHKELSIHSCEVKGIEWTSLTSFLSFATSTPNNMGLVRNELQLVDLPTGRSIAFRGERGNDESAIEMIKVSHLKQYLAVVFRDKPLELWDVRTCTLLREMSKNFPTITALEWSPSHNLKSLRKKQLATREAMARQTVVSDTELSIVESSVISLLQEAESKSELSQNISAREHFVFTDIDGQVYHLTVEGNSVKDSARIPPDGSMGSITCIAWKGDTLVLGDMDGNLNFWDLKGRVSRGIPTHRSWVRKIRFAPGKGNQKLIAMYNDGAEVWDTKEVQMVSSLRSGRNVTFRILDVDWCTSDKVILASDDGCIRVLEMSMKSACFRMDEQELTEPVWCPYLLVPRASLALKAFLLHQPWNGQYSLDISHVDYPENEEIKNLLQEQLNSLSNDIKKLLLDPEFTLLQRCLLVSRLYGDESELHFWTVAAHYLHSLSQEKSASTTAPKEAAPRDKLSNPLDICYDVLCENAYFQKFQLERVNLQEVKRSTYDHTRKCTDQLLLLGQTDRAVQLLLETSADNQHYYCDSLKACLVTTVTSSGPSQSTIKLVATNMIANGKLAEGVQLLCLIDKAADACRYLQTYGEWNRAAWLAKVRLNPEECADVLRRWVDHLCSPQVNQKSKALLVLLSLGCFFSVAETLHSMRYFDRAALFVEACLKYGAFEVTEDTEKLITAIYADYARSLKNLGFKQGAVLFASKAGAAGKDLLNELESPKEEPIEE

B1: IFT88 (protein, UniProt Q61371 1-824)
chain: MENVHLAPETDEDDLYSGFNDYNPAYDTEELENDTGFQQAVRTSHGRRPPVTAKIPSTAVSRPIATGYGSKTSLTSSMGRPMTGTIQDGVARPMTAVRAAGFSKAALRGSAFDPLGQSRGPAPPLEAKNEDSPEEKIRQLEKKVNELVEESCIANSCGDLKLALEKAKDAGRKERVLVRQREQVTSPENINLDLTYSVLFNLASQYSANEMYAEALNTYQVIVKNKMFSNAGRLKVNMGNIYLKQRNYSKAIKFYRMALDQIPSVHKEMRIKIMQNIGITFIKTGQYSDAINSFEHIMSMAPSLKAGFNLILSCFAIGDREKMKKAFQKLIAVPLEIDEDDKYISPSDDPHTNLLIEAIKNDHLRQMERERKAMAEKYIMTAAKLIAPVIEASFAVGYNWCVEVVKASQYVELANDLEINKAITYLRQKDFNQAVDTLKMFEKKDSRVKSAAATNLSFLYYLENEFAQASSYADLAVNSDRYNPSALTNKGNTVFANGDYEKAAEFYKEALRNDSSCTEALYNIGLTYKKLNRLDEALDSFLKLHAILRNSAQVLCQIANIYELMEDPNQAIEWLMQLISVVPTDSQALSKLGELYDSEGDKSQAFQYYYESYRYFPSNIEVIEWLGAYYIDTQFCEKAIQYFERASLIQPTQVKWQLMVASCFRRSGNYQKALDTYKEIHRKFPENVECLRFLVRLCTDIGLKEVQEYATKLKRLEKMKEMREQRIKSGRDSSGGSRSKREGSAGSDSGQNNSASSKSERLSAKLRALPGTDEPYESSGNKEIDASYVDPLGPQIERPKTAAKKRIDEDDFADEELGDDLLPE
B2: IFT57 (protein, UniProt Q8BXG3 1-429)
chain: MAAAAAVIPPSGLDDGVSRARGEGAGEAVVERGPGAAYHMFVVMEDLVEKLKLLRYEEELLRKSNLKPPSRHYFALPTNPGEQFYMFCTLAAWLINKTGRAFEQPQEYDDPNATISNILSELRSFGRTADFPPSKLKSGYGEQVCYVLDCLAEEALKYIGFTWKRPSYPVEELEEETVPEDDAELTLSKVDEEFVEEETDNEENFIDLNVLKAQTYRLDTNESAKQEDILESTTDAAEWSLEVERVLPQLKVTIRTDNKDWRIHVDQMHQHKSGIESALKETKGFLDKLHNEISRTLEKIGSREKYINNQLEHLVQEYRGAQAQLSEARERYQQGNGGVTERTRLLSEVTEELEKVKQEMEEKGSSMTDGTPLVKIKQSLTKLKQETVQMDIRIGVVEHTLLQSKLKEKCNMTRDMHAAVTPESAIGFY

No constants are given. Whether binding was seen depends on the method and setting. Binding seen in cells or lysates may run through a third protein. Some entries that bind do so weakly or less than the wild type. Tags and fused reporters may be left off the sequences shown.

This test addresses T1, Myc-tagged WDR11. The test is described as follows: co-IP; NIH3T3 cells transfected with Myc-tagged WDR11 or empty vector; pre-cleared lysate (1-2 mg protein; 50 mM HEPES, 150 mM NaCl, 10% glycerol, 1% Nonidet P-40, 1 mM EDTA) immunoprecipitated with anti-Myc antibody, immune complexes captured on protein A/G-agarose beads, Western blot for endogenous IFT proteins.
Regarding IFT20 (from UniProt Q61025 1-132), the binding entry is “binds”. Regarding IFT140 (from UniProt E9PY46 1-1464), the binding entry was “no binding”. As for B1, the binding entry is on record as “binds”. Consider B2, for which the binding entry is reported as “binds”.
